# Whole data set: some 33,000 sequences, median “E-score (-0.5 to 0.5)” near -8e-05, cut for the highest 2% near 0.23. This is one part of the list.
# Target: T1, Nrg2 (UniProt P38082)
# T1 sequence: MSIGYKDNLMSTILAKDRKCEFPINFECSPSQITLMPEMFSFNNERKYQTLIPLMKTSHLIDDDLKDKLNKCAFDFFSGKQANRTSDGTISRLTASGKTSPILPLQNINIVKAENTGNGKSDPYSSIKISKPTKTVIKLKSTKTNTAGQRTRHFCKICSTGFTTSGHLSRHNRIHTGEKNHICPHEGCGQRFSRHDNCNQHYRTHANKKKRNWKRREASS
# Test: PBM E-score (8-mer binding enrichment) (E-score (-0.5 to 0.5)); higher = stronger / more preferred TF binding
# Conditions: protein concentration: 100 nM; construct: GST-full length
# Method: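 Universal 'all 10-mer' protein binding microarrays (Agilent AMADID 015681) probed with GST-tagged S. cerevisiae TFs (full-length or DBD) made by in vitro transcription/translation (PURExpress), about 100-200 nM. Bound TF was detected with fluorescent anti-GST. Each ungapped 8-mer (which stands for itself and its reverse complement) is scored by the PBM enrichment score (E-score), a modified Wilcoxon-Mann-Whitney statistic from -0.5 to +0.5, computed with the Universal PBM Analysis Suite. Scale: above 0.35 generally sequence-specific binding.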
row,Sequence,PBM E-score
1,ACTTCTCA,0.0225
2,CAATACCG,0.0306
3,CGTGAGCA,-0.157
4,CATTTGGA,0.166
5,AGAGTTCA,-0.0673
6,GACCCGTC,-0.108
7,CGGGGGGA,-0.406
8,CTAAGTTC,-0.00111
9,AACATATA,0.149
10,AGGGCTGG,-0.176
11,GGAGATCC,-0.012
12,TTGCAAAA,0.165
13,AATGTCTA,-0.0517
14,CACCGACC,-0.106
15,AGACCGCA,0.0799
16,ACTGCGAT,0.0256
17,AATGTTAA,-0.0987
18,CAAGCAAG,0.014
19,AGCTCCAA,0.0886
20,GGCCTCGA,-0.0833
21,CCTGGCAA,0.0435
22,GTCACTAA,0.173

row,Sequence,PBM E-score
1,ATTACCGC,0.0374
2,TCAAGGGA,0.0644
3,GCTTCCCC,-0.258
4,ATCAACCC,0.297
5,AGGCGCGA,0.14
6,ACCCCACA,0.201
7,AAGGGTGC,0.141
8,TAGTCTCA,-0.181
9,CATTTCCG,0.182
10,CCCGCCAG,-0.148
11,CTACGACA,0.0855
12,ACCCAGAG,0.133
13,CGTTAGGC,-0.197
14,CAAAAAGA,0.0883
15,AACCTACT,0.0513
16,CTCGGAGC,0.0933
17,CCCGTAGC,-0.176
18,AATAAGCG,-0.0202
19,CTACACAC,0.00452
20,AATTCACA,0.204
21,GACGGGGC,-0.121
22,CAACGTTA,0.101

# 5 records picked at random from the list so far:
row,Sequence,PBM E-score
6,ACCCCACA,0.201
12,ACCCAGAG,0.133
8,CTAAGTTC,-0.00111
1,ACTTCTCA,0.0225
1,ATTACCGC,0.0374

# Further entries:

row,Sequence,PBM E-score
1,CGAAGTGC,0.148
2,GTATTCCA,0.0351
3,TTACTAAA,0.123
4,CCTAGGCG,-0.117
5,GGCAAGTA,0.104
6,AATAAAAC,0.12
7,CATGATTC,-0.02
8,ACACAACC,-0.0638
9,GTCAGAAA,0.0126
10,ATAATGGA,0.0299
11,CGTGCAGC,0.126
12,ACCCATTC,0.0717
13,ATTACTAA,0.17
14,GGGGGCCA,-0.321
15,ACATGCTG,-0.00272
16,ATACTATG,0.167
17,GGGAGGTA,-0.0472
18,TCAGAGCA,-0.0393
19,GCACGGCA,-0.0219
20,AAATTCCA,0.254
21,ATATGATA,0.249
22,ACGCTGTG,-0.0124

row,Sequence,PBM E-score
1,ACTCAAAT,-0.0419
2,ACAACAAC,0.0873
3,GACTTAAC,-0.229
4,AATTAATA,0.303
5,GAGTGCGC,0.0551
6,CGCTCCAG,-0.0707
7,ATCACGTG,0.0394
8,ATAATATA,0.268
9,AATCAAGC,-0.107
10,AGACACCC,-0.166
11,CAACTTAC,-0.199
12,CTGGCCCA,-0.115
13,AGGTGTCG,0.0158
14,CATCAGGA,0.0652
15,AGCCGCTA,-0.159
16,CGCATGAC,0.01
17,TCGTGCAA,0.0945
18,AAGTTGAT,0.0287
19,GAGGGTGC,-0.274
20,CCGGCTTC,0.0769
21,CATAATCA,0.185
22,AGTGTCTG,0.0987

row,Sequence,PBM E-score
1,ACTGATGC,-0.0236
2,CCTCTCTC,-0.232
3,ACTTATTC,0.109
4,ACCCGGTC,-0.147
5,AAGCTTCG,-0.109
6,CGTGCGAC,-0.161
7,TAGGACCA,-0.0435
8,CATCCAAA,-0.00312
9,ATTATATG,0.132
10,AGTGGCAG,-0.0855
11,CACTTCGG,0.101
12,GGTTCTCA,0.0672
13,CCCCGTAG,-0.0478
14,CTCAATGA,0.104
15,AGCAAAGC,-0.07
16,TAACATTA,0.0456
17,TGCGAAAA,0.115
18,CCTCACGA,-0.111
19,GTCCGGGA,0.106
20,ATAATTCC,0.0468
21,CCAATATC,0.103
22,ATCTCACA,-0.0306

# Source: the supplement of paper PMC3334620
